# Measurements reported in US20100196492A1, “ELECTROSTATIC COATING OF PARTICLES FOR DRUG DELIVERY” (priority 2007, published 2010).
# At least one peptide structure holds a part that was inferred or is arguable (an end, a ring closure or a residue). Where no end group is shown, it is not given here.
# Key:
# [1] = Particle size and stability by dynamic light scattering in serum-containing media; settings: 50 w/w C32; N/P 1.55; 12% serum-containing media
# [2] = tested on: HUVECs; experiment: GFP transfection of confluent HUVECs in 12% serum, FACS; type: cell-based, Human
# Text: GFP Transfections. Fluorescent Activated Cell Sorting (FACS) and enhanced green fluorescent protein (EGFP) DNA were utilized to determine the efficacy of nanoparticle gene delivery. FACS data was interpreted by using a two-dimensional contour plot that compares the ratio of EGFP channel fluorescence (x-axis) to yellow channel autofluorescence (y-axis) for greater accuracy than a one-dimensional histogram as previously described. […] These experiments took place under conditions generally seen as difficult for in vitro transfection, but important for an in vivo cardiovascular application: fully confluent, and therefore non-dividing, primary cells in the presence of a high concentration of serum proteins.
# GFP Transfections. Non-viral nanoparticle transfections were performed on confluent HUVECs in the presence of 12% serum. HUVECs were seeded (75,000 cells/well) into clear 24-well plates (Becton Dickinson, Franklin Lakes, N.J., USA) at 24 hours prior to transfection to allow for growth to confluence. Nanoparticles were constructed as previously mentioned using a 6 μg DNA basis per well. Then 150 μL of each polymer/DNA/peptide nanoparticle solution was added to 1.00 mL of FBS supplemented EGM-2 media (12% Serum). The growth medium was removed from the seeded cells using a 6-channel aspirating wand (V&P Scientific, San Diego, Calif., USA) after which 750 μL of the nanoparticle/media solution was immediately added. Nanoparticles were incubated with the cells for 4 hours and then removed using the 6-channel wand and replaced with 500 μL of warm EGM-2 media. After 48 hours, transfected and untransfected control cells were washed, removed from the 24-well plates by trypsinization, microcentrifuged, and resuspended in 500 μL of FACS running buffer (98% PBS/2% FBS/1:200 propidium iodide solution (Invitrogen)) for FACS analysis.
# Flow Cytometry. GFP expression was measured using Fluorescence Activated Cell Sorting (FACS) on a FACSCalibur (Becton Dickinson, San Jose, Calif., USA). Propidium iodide staining was used to exclude dead cells from the analysis and 20,000 live cells per sample were acquired. Two-dimensional gating was used to separate increased autofluorescence signal from increased GFP signal to more accurately count positively expressing cells. Gating and analysis was performed using FlowJo 6.3 software (TreeStar, Ashland, Oreg., USA).
sequence,measurement,setting,value
EEEEEEEEEEEEGGGGGGGRGDS [E12-RGD],change of particle size by coating vs uncoated nanoparticles,[1],slightly increases particle size
same,percentage of HUVECs transfected compared to E12-RDG coated control particles,"[2]; 40 w/w C32/DNA, N/P ratio 1.55",six-fold higher
same,transfection of HUVECs (FACS gating of GFP),"[2]; 40 w/w C32, N/P 1.55",significantly transfect HUVECs
same,ligand-specific delivery (RGD vs RDG coat) by peptide length,"[2]; 50 w/w C32, HUVECs, 12% serum-containing media",allowed for specific delivery
same,transfection of human endothelial cells vs same nanoparticles coated with E12-RDG scrambled sequence,"[2]; 50 w/w C32, overall N/P ratio nears neutrality, 12% serum",significantly better
same,GFP expression of the most positive cells vs background,"[2]; individual cell basis, 40 w/w C32/DNA, N/P 1.55",1.000 fold
